Positions count from the first letter of the chain named. In names and notes the source's numbering stands. Read-outs that look alike come from different tables or passages of the source. No constants are given. Whether binding was seen depends on the method and setting. Some binding calls cover weakened binding; strength is not graded here. Where a sequence is shown, tags or fusion partners need not be part of it.
T1: BD-myc-Imp4 (wild type) (S. cerevisiae) (UniProt P53941)
T1 sequence: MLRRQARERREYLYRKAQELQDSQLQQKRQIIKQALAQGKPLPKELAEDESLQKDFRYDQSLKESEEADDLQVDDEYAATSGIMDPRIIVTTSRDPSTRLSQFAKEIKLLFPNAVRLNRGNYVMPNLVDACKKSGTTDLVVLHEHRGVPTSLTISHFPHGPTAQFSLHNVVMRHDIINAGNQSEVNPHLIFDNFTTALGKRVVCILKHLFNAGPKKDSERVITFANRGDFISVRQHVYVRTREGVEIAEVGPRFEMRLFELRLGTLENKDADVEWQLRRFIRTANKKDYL

T2: BD-myc-Imp4 P252L (S. cerevisiae) (UniProt P53941)
T2 sequence: T1 sequence with P252L

T3: BD-myc-Imp4 V170F (S. cerevisiae) (UniProt P53941)
T3 sequence: T1 sequence with V170F

T4: BD-myc-Dhr1 (wild type) (S. cerevisiae) (UniProt Q04217)
T4 sequence: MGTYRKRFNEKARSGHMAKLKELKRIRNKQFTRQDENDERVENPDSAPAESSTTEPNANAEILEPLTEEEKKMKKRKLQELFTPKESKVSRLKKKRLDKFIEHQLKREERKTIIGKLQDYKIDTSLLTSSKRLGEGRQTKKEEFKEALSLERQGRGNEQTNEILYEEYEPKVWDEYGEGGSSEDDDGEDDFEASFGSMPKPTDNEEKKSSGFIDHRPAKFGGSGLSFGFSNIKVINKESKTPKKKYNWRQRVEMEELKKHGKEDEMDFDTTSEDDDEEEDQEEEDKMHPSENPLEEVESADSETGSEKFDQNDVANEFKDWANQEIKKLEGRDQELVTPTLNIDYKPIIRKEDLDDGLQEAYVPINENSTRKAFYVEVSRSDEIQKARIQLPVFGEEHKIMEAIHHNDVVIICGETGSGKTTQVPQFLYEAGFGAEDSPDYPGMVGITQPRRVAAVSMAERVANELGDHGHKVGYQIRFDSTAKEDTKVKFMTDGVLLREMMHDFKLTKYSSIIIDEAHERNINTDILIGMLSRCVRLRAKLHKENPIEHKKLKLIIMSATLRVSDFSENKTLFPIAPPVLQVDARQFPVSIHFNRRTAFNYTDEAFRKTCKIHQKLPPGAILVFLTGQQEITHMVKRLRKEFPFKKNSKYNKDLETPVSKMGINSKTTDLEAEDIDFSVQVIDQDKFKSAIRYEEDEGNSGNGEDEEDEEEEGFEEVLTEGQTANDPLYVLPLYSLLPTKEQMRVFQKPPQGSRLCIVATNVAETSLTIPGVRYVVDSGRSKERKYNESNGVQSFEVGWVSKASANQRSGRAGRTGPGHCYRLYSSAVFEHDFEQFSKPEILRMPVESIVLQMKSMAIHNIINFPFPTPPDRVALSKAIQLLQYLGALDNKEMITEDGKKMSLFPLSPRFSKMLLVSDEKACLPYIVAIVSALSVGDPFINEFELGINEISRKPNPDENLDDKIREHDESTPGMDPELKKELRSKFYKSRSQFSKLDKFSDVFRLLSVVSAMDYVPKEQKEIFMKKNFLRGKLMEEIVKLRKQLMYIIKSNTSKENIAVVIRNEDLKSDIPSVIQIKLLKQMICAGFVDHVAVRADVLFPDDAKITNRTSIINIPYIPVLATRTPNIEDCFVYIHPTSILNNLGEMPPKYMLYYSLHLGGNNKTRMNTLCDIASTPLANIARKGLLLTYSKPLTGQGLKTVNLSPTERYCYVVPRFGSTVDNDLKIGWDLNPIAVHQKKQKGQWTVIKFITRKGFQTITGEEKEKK

B1: Utp2-AD-HA (wild-type Utp2 with an HA-tagged GAL4 activating domain fused to its C-terminus) (protein, UniProt Q99207 1-810)
chain: MAGSQLKNLKAALKARGLTGQTNVKSKNKKNSKRQAKEYDREEKKKAIAEIREEFNPFEIKAARNKRRDGLPSKTADRIAVGKPGISKQIGEEQRKRAFEARKMMKNKRGGVIDKRFGERDKLLTEEEKMLERFTRERQSQSKRNANLFNLEDDEDDGDMFGDGLTHLGQSLSLEDELANDEEDFLASKRFNEDDAELQQPQRKKTKAEVMKEVIAKSKFYKQERQKAQGIMEDQIDNLDDNFEDVMSELMMTQPKKNPMEPKTDLDKEYDIKVKELQLDKRAAPSDRTKTEEEKNAEAEEKKRELEQQRLDRMNGMIELEEGEERGVEDLDDGFWENEEDYEDDNDGIADSDDDIKFEDQGRDEGFSQILKKKNISISCPRTHDALLDQVKKLDLDDHPKIVKNIIKAYQPKLAEGNKEKLGKFTAVLLRHIIFLSNQNYLKNVQSFKRTQNALISILKSLSEKYNRELSEECRDYINEMQARYKKNHFDALSNGDLVFFSIIGILFSTSDQYHLVITPALILMSQFLEQIKFNSLKRIAFGAVLVRIVSQYQRISKRYIPEVVYFFQKILLTFIVEKENQEKPLDFENIRLDSYELGLPLDVDFTKKRSTIIPLHTLSTMDTEAHPVDQCVSVLLNVMESLDATISTVWKSLPAFNEIILPIQQLLSAYTSKYSDFEKPRNILNKVEKLTKFTEHIPLALQNHKPVSIPTHAPKYEENFNPDKKSYDPDRTRSEINKMKAQLKKERKFTMKEIRKDAKFEARQRIEEKNKESSDYHAKMAHIVNTINTEEGAEKNKYERERKLRGGKK
B2: Utp2-DPE (A2D, L6P, K7E) as Utp2-AD-HA (protein, UniProt Q99207 1-810)
chain: B1 chain with A2D, L6P, K7E
B3: AD-HA-Utp14 (protein, UniProt Q04500 1-899)
chain: MAKKKSKSRSKSSRRVLDALQLAEREINGEFDNSSDNDKRHDARRNGTVVNLLKRSKGDTNSDEDDIDSESFEDEELNSDEALGSDDDYDILNSKFSQTIRDKKENANYQEEEDEGGYTSIDEEDLMPLSQVWDMDEKTAQSNGNDDEDASPQLKLQDTDISSESSSSEESESESEDDEEEEDPFDEISEDEEDIELNTITSKLIDETKSKAPKRLDTYGSGEANEYVLPSANAASGASGKLSLTDMMNVIDDRQVIENANLLKGKSSTYEVPLPQRIQQRHDRKAAYEISRQEVSKWNDIVQQNRRADHLIFPLNKPTEHNHASAFTRTQDVPQTELQEKVDQVLQESNLANPEKDSKFEELSTAKMTPEEMRKRTTEMRLMRELMFREERKARRLKKIKSKTYRKIKKKELMKNRELAAVSSDEDNEDHDIARAKERMTLKHKTNSKWAKDMIKHGMTNDAETREEMEEMLRQGERLKAKMLDRNSDDEEDGRVQTLSDVENEEKENIDSEALKSKLGKTGVMNMAFMKNGEAREREANKETLRQLRAVENGDDIKLFESDEEETNGENIQINKGRRIYTPGSLESNKDMNELNDHTRKENKVDESRSLENRLRAKNSGQSKNARTNAEGAIIVEEESDGEPLQDGQNNQQDEEAKDVNPWLANESDEEHTVKKQSSKVNVIDKDSSKNVKAMNKMEKAELKQKKKKKGKSNDDEDLLLTADDSTRLKIVDPYGGSDDEQGDNVFMFKQQDVIAEAFAGDDVVAEFQEEKKRVIDDEDDKEVDTTLPGWGEWAGAGSKPKNKKRKFIKKVKGVVNKDKRRDKNLQNVIINEKVNKKNLKYQSSAVPFPFENREQYERSLRMPIGQEWTSRASHQELIKPRIMTKPGQVIDPLKAPFK

Columns and labels:
Assay in all cases: two-hybrid
[1] = biological target: T1, BD-myc-Imp4 (wild type) (S. cerevisiae)
[2] = biological target: T1, BD-myc-Imp4 (wild type) (S. cerevisiae); remark: listed apart in the source
[3] = biological target: T2, BD-myc-Imp4 P252L (S. cerevisiae)
[4] = biological target: T3, BD-myc-Imp4 V170F (S. cerevisiae)
[5] = biological target: T4, BD-myc-Dhr1 (wild type) (S. cerevisiae)

Binder | binding [1] | binding [2] | binding [3] | binding [4] | binding [5]
B1 | binds | binds | no binding | no binding | 
B2 | binds |  |  |  | 
B3 |  |  |  |  | binds

Reference: doi:10.1101/2020.02.05.936237
